The target in assay [1] is C-terminally phosphorylated p27pT157pT198 (endogenous, MDA-MB-231-1833 cells) (human (endogenous in MDA-MB-231-1833)) (UniProt P46527). The assay can be described thus: co-IP; cells lysed with Cell Lytic M; 1 mg lysate incubated overnight at 4 °C with 2 micrograms p27 antibody (D69C12) or control IgG; collected on protein A/G plus agarose; immunoblot; 231, 231DD and 1833 cells. (A western blot detects proteins with antibodies after separation by electrophoresis.)

By UniProt entry, the sequences of proteins in these tests, tags left out. Where a name states a change or a piece, a line headed by the entry shows the natural chain unless it says otherwise. Chains listed by the source or under a name are the forms on record and can include a tag or linker.
UniProt P46527: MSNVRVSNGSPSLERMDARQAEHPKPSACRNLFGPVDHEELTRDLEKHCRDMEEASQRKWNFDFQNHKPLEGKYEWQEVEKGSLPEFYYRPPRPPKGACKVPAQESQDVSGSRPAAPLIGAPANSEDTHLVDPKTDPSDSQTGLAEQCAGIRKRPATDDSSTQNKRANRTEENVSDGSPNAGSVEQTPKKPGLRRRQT
GFP-p27CK-T157D/T198D (P46527, form named): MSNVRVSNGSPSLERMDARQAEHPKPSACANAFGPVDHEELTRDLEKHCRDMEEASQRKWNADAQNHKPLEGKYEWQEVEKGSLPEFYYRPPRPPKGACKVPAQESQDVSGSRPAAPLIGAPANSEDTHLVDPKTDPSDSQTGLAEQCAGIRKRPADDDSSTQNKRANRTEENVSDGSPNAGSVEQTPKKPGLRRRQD
UniProt P05412: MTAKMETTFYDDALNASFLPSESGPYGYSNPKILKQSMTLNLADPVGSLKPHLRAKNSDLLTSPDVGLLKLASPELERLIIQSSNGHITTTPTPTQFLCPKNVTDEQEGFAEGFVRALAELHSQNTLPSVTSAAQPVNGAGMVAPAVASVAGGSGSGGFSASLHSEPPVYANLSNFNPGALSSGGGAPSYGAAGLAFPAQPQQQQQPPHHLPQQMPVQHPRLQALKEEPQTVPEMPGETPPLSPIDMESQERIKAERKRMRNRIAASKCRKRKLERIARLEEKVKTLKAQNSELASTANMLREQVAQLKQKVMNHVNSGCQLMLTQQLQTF
UniProt Q92793: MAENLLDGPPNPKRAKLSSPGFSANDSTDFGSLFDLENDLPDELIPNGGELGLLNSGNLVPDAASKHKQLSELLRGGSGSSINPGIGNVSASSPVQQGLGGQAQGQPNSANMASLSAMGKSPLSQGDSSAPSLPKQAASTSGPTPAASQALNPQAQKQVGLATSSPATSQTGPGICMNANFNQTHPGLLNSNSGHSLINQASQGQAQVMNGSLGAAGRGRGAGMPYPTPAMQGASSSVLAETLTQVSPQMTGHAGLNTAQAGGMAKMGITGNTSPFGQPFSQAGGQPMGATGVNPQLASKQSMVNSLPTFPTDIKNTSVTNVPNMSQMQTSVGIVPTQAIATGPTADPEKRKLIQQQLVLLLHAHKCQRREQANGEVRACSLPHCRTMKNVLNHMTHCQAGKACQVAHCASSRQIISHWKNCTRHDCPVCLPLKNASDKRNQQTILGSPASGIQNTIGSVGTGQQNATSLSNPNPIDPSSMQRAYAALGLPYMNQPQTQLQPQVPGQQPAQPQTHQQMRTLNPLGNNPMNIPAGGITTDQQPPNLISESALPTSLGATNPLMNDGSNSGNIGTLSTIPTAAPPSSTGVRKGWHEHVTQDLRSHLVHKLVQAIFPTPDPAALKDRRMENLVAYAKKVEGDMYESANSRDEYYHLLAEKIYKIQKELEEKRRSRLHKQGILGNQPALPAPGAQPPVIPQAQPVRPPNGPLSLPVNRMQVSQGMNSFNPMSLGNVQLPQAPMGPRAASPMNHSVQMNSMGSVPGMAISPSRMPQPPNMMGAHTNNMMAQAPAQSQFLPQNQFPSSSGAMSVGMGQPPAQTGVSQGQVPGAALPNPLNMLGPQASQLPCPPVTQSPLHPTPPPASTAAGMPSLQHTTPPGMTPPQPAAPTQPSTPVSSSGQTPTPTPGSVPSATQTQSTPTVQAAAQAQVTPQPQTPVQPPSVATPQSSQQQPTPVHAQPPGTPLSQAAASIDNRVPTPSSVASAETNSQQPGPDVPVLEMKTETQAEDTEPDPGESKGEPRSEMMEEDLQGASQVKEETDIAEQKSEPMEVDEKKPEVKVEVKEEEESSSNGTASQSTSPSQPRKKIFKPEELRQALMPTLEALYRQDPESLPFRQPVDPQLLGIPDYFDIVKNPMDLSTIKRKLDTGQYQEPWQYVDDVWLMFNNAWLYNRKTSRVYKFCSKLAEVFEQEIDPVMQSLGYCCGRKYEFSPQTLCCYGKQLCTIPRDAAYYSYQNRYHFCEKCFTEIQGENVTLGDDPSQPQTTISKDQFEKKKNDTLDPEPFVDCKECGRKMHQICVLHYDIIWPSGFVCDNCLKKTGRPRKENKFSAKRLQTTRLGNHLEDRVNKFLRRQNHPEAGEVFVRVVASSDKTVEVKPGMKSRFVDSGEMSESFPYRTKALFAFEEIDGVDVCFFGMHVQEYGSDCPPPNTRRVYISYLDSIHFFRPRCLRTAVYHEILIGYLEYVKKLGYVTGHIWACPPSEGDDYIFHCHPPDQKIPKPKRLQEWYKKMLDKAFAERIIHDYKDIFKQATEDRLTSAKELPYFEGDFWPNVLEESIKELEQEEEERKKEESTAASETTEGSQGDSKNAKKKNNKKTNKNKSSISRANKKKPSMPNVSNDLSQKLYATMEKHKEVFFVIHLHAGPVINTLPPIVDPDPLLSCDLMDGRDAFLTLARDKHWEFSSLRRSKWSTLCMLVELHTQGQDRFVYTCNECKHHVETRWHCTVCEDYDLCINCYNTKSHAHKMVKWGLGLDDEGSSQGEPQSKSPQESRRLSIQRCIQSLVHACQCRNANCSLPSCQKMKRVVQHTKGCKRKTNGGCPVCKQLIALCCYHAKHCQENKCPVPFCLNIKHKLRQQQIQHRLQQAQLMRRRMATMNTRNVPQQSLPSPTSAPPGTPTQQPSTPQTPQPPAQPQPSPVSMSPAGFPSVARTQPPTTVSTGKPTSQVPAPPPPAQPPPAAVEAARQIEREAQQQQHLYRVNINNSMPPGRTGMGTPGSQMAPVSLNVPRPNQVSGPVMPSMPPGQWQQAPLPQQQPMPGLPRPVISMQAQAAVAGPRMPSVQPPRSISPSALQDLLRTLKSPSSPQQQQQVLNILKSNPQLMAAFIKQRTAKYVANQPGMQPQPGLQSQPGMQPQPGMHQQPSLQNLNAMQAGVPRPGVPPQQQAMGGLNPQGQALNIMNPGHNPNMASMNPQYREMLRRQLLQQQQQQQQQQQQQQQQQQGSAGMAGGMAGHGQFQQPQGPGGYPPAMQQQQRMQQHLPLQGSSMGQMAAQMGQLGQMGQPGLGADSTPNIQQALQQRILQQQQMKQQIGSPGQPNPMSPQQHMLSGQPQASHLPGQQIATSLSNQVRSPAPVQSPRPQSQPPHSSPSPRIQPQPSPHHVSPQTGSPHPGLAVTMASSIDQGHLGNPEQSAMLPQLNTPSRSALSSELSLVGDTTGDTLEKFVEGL
UniProt Q13547: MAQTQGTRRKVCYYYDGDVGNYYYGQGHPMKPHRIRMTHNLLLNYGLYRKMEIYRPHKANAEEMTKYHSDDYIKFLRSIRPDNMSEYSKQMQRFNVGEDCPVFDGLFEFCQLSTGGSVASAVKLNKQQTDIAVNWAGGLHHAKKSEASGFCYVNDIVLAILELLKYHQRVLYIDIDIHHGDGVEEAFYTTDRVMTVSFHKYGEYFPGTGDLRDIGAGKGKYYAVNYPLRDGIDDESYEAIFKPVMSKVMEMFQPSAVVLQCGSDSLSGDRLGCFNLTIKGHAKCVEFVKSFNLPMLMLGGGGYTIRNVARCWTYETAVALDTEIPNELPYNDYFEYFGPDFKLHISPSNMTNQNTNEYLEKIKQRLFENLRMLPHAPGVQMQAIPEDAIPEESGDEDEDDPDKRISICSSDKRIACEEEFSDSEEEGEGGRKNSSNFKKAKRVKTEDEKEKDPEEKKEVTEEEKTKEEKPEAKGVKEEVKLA
UniProt P25490: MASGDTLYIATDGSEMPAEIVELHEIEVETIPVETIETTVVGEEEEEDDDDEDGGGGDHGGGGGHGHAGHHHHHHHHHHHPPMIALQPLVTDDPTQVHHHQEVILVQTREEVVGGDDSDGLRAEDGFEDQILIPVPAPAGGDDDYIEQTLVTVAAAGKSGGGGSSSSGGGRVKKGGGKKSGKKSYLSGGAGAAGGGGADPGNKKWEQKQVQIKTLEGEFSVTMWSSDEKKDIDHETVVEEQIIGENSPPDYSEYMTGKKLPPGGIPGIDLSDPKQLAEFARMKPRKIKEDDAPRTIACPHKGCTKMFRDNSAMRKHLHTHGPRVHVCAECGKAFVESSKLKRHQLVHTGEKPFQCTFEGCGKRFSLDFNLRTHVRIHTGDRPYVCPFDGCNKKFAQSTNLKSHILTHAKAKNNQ
UniProt P40763: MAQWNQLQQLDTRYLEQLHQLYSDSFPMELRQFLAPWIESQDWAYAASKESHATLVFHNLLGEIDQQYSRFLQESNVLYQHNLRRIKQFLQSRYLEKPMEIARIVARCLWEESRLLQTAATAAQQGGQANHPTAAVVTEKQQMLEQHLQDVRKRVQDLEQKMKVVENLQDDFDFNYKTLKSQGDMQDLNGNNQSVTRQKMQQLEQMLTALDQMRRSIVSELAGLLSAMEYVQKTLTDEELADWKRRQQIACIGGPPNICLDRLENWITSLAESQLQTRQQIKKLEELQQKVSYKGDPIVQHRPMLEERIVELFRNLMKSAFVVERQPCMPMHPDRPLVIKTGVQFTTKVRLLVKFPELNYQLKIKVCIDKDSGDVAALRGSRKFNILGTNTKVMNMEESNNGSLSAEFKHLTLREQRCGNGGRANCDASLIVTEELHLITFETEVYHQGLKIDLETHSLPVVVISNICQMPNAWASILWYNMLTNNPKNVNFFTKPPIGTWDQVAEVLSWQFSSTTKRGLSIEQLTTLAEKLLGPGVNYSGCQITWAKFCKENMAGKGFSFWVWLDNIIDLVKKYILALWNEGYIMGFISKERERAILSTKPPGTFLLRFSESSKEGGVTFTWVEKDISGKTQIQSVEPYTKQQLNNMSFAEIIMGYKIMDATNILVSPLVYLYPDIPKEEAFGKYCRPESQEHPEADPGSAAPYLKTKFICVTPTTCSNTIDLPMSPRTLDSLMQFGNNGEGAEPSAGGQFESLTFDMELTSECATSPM

The target of assay [2] is p27 (cellular p27 of MDA-MB-231 parental cells) (human (endogenous in MDA-MB-231)) (UniProt P46527). The description is as above.
Assay [3] concerns the target GFP-p27CK-T157D/T198D (human) (UniProt P46527). Described as above.
Assay [4] concerns the target cJun (human (endogenous in MDA-MB-231 lines)) (UniProt P05412). The assay can be described thus: ChIP-Western; chromatin cross-linked with 1% formaldehyde and sonicated, precipitated with cJun antibody, Western blot of the precipitate; cells not named.

Results are given in words; binding and its absence hold for the method and conditions named. For some assays here: Binding seen in cells or lysates may run through a third protein. Some entries that bind do so weakly or less than the wild type.

Regarding CBP (from UniProt Q92793 1-2442), the binding result in assay [1], in assay [2] and in assay [3] was “binds” each time.

HDAC1 (from UniProt Q13547 1-482): the binding entry in assay [4] was “binds”.

Consider YY1 (from UniProt P25490 1-414), for which, in assay [4], the binding entry is “binds”.

Take cJun (from UniProt P05412 1-331): the binding entry in assay [1], in assay [2] and in assay [3] was “binds” in each case.

Turning to “signal transducer and activator of transcription 3 (STAT3) (from UniProt P40763 1-770)”, the binding entry in assay [1], in assay [2] and in assay [3] was “binds” throughout.

The values above are taken from paper PMC11183067.
